Data as given in article PMC10163288.
This is one part of the list.

B1: il2ra_site1_1z92_normal_mot_HHH_b1_05017_af2_000000137_0001_42_54_H_._HHH_b2_03124_0001_0000300027_0000001_0_af2pred_0001_af2pred (protein)
chain: SSSSSSSDVEEEAEELLKELEELGDERALKALRFALRAVRLLGSPKAREFLEEMLKDLSSSSSSS
B2: il2ra_site1_1z92_sap_17_mot_1581cc1c700002558836ca695aafbf97_0001_1_af2_000000099_0001_17_32_H_._06fb79ff5b0635ea054e4773f75fe636_0001_af2_0001_0000300031_00000 … (protein)
chain: SSSSDLEERAQEIVEELVEELNLSEEIEEALRKDAEAAVRLGLSEKSIEIALRRAAQRALSSSSS
B3: il2ra_site1_2b5i_sap_9_mot_ems_3hM_3687_af2_000000248_0001_45_64_H_._f30f37b9280b12e082159cc05f8864eb_0001_1_af2_0001_0000500021_0000001_0_0001_af2pred_dldesign … (protein)
chain: SSSSSSRVRELFLEAEALKKAGKEEEAKKVAEEALAEARAAKMPALARLLELALKNLESSSSSSS
B4: il2ra_site2_3nfp_sap_14_mot_HHH_b1_02297_000000279_0001_41_58_H_._HHH_b2_00015_0001_0000300025_0000001_1_0001 (protein)
chain: SSSSDKSEEYLRIALELAEEALEAGDEESVRSILETAKAAAESNNDEEVLRLLREIEEELSSSSS
B5: il2ra_site2_2erj_sap_26_mot_HHH_b2_08005_af2_000000017_0001_39_52_H_._5f42aca8a0c299d7b7d7982f3e471efe_0001_0001_0000400050_0000001_0_0001 (protein)
chain: SSSSDLEEEVERIEKEAEELYKNGNPEEALRLLSELFDELYQLGDHELAARVIKLVAELARSSSS
B6: il2ra_site2_3nfp_normal_mot_HHH_b2_00531_000000244_0001_40_57_H_._HHH_b2_00538_0001_0000500026_0000001_0_af2pred_0001_1_af2pred_swapped (protein)
chain: SSSSSDEEEVEERIEQLLEEAKKIDDEEELQIVLLEAAVLALLLGDPEIIREVRRVAEELSSSSS
B7: il2ra_site1_3nfp_sap_14_mot_HHH_b1_07910_000000017_0001_1_16_H_._5d1becb6a9d54c9d42db3f0d03ab68b4_0001_af2_0001_0000200015_0000001_0_0001 (protein)
chain: SSSSSDNVEAARRFDELLKQLKHVSEEEQEEILRELEEIAEEFNTPLARRLVEQFKRLLSSSSSS
B8: il2ra_site2_2erj_normal_mot_HHH_b2_06545_000000262_0001_21_37_H_._HHH_b1_03255_0001_0000800014_0000001_0_af2pred_0001_1_af2pred_swapped (protein)
chain: SSSSTEEEIEELIERIEELIKRGDREEAHELLWEALELALKIDNEELEERLRRLREEVEGSSSSS
B9: il2ra_site1_2b5i_sap_10_mot_HHH_b1_06833_000000178_0001_1_19_H_._HHH_b2_00933_0001_0000100002_0000001_1_0001 (protein)
chain: SSSSTEEAKELVRFVLRLAWKFGLSLEQMQELAELLDELVARGVDPEEIRRLLEELAKELSSSSS
B10: il2ra_site1_1z92_normal_mot_HHH_b1_05331_000000138_0001_42_56_H_._HHH_b2_00843_0001_0000100001_0000001_0_af2pred_0001_af2pred_1 (protein)
chain: SSSSTDSSREAEEILREILKLLKEGDPEQVEELLERLERLAEEENDPAAKRAVEILKKRLDSSSS
B11: il2ra_site1_3nfp_sap_20_mot_HHH_b2_05589_af2_000000060_0001_42_57_H_._HHH_b1_00249_0001_0000500016_0000001_0_0001_af2pred_0001_af2pred_1 (protein)
chain: SSSSDELEELLKELEEAVEEGDEELVKELARKVFELAKKLKDDEVAREVARLLLEFFRRLSSSSS
B12: il2ra_site2_3nfp_normal_mot_HHH_b1_00660_af2_000000090_0001_40_57_H_._HHH_b1_00664_af2_0001_0000300018_0000001_0_af2pred_0001_af2pred (protein)
chain: SSSSDEEEEEIRRLLEEAKRIEDPEEAAKVVREAALLAFELNNFELLAEALKLLRKLIRDSSSSS
B13: il2ra_site1_3nfp_normal_mot_HHH_b1_01335_af2_000000105_0001_39_53_H_._HHH_b1_07427_af2_0001_0000600042_0000001_1 (protein)
chain: SSSSDERLQRIYELMQKAAKIPDDEEVKKIIEEALELAERRGDEILFEKLERALEFLKRGSSSSS
B14: il2ra_site1_3nfp_normal_mot_e23a5047defaa1e2c88e76f09435f1ea_0001_000000111_0001_16_31_H_._b0b8df4b7fc8e9004491a89afff21cfb_0001_af2_0001_0000800086_0000001_0 (protein)
chain: DKAIEYAIKQFKKDGIPPEKIVEFLLEAAKRAGLPPEELQKILEELLEKTGDPLLEELLELLEER
B15: il2ra_site2_2erj_sap_21_mot_HHH_b1_06344_af2_000000198_0001_42_57_H_._5e8ab3ebaa49a9e680896593b179b5f8_0001_af2_0001_0000100023_0000001_0_0001 (protein)
chain: SSSSDEELRELYELLNELMRLLSRGDEERLEELLKQLEELAKKLNSEAAREIIERVEKRLSSSSS
B16: il2ra_site2_3nfp_normal_mot_HHH_b2_07651_000000186_0001_1_16_H_._HHH_b1_01772_af2_0001_0000400026_0000001_0 (protein)
chain: SSSSSSDDEELEIYERVIELAKLNTEESREELEELLEEAKELGNAVLFRSIESFLEALSSSSSSS
B17: il2ra_site2_3nfp_sap_12_mot_HHH_b1_02297_000000279_0001_41_58_H_._HHH_b2_04868_0001_0000100005_0000001_0_0001 (protein)
chain: SSSSSSDVEELAEEAIEKAEEAGDDKAARYLRVALELLKEAGNPSIKEVLKAAAESWKSSSSSSS
B18: il2ra_site1_2b5i_normal_mot_f5ff40796168375b462bec8614a1db4a_0001_1_000000138_0001_53_65_H_._HHH_b1_00016_0001_0000100002_0000001_0_af2pred_dldesign_0_af2pred (protein)
chain: SSSSSDPLRELVEELIEEAKKEPDKNLAHKKLLLARRVARKANDPELVARVEAVLKELESSSSSS

The binders below were run against il2ra, P01589 (assay: yeast display titration).

Apparent Kd, inactive:
B1 no binding seen
B2 no binding seen
B3 no binding seen
B4 no binding seen
B5 no binding seen
B6 no binding seen
B7 no binding seen
B8 no binding seen
B9 no binding seen
B10 no binding seen
B11 no binding seen
B12 no binding seen
B13 no binding seen
B14 no binding seen
B15 no binding seen
B16 no binding seen
B17 no binding seen
B18 no binding seen

Two entries picked at random from the list so far:
Apparent Kd, inactive:
B12 no binding seen
B4 no binding seen
